This assay in a line: qHTS Assay for Modulators of Lamin A Splicing. Conditions: HeLa LMNA splicing GFP/RFP minigene ratio, 48 h. Summed up: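 Read-out is the ratio of GFP to DsRed2 object intensity, acquired by 488 nm laser-scanning cytometry on HeLa lamin A-EGFP minigene reporter cells. Compound incubation 48 hrs at 37 °C in Opti-MEM with 2% FBS; DMSO 0.5% final.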
On the technique in general: In qHTS, concentration-response curves come from the screen itself.

[1] abbreviates: measured here: RFP viability control channel.
Setting [2] is: measured here: GFP splicing reporter channel.

The values that follow come from PubChem BioAssay AID1487 (National Center for Advancing Translational Sciences (NCATS), 2009).

The list shows a part of the results. Further columns of the screen follow, without active or inactive calls. The list favours compounds with an active or inconclusive main result. Potencies come from curve fits of mixed quality, noted in brackets.

For orientation: AC50 means the concentration giving half of the maximal activity seen. As for `CCN(CC)CCn1c(NCc2cc(OC)ccc2OC)nc2ccccc21`, the AC50 under setting [1] is 20 µM [rising, single point].
With `CCOc1cc(C(=O)Nc2ccc(F)cc2)cc(Br)c1OC`, the half-maximal activity concentration (AC50) under setting [2] is 15.8 µM [falling, single point].
With `O=C(/C=C/c1ccccc1)Nc1nc(-c2ccncc2)cs1`, the AC50 is 20 µM [falling, partial curve, poor fit] under setting [2] and 0.0141 µM [falling, full curve, poor fit] under setting [1].
Consider `Cc1ccc(-c2nnc3n2N=C(c2ccccc2)CS3)cc1`, for which, under setting [1], the AC50 was 10 µM [rising, partial curve, poor fit].
Take `Cc1ccc(S(=O)(=O)N2CCC(C(=O)N/N=C/c3ccncc3)CC2)cc1`: the AC50 under setting [1] was 5.01 µM [falling, partial curve, poor fit].
Still for that read-out and setting: for `COc1ccc(-c2csc(C3=C(O)CN(Cc4ccc(Cl)cc4)C3=N)n2)cc1OC` the value was 17.8 µM [falling, single point].
With `Nc1ncnc2c1ncn2C1OC(CO)C(O)C1O` (configuration not stated), the AC50 under setting [2] was 0.282 µM [falling, full curve] and the AC50 under setting [1] was 22.4 µM [falling, partial curve, poor fit].
Consider `Cc1cc(C)nc(Nc2nc(=O)c3ccccc3s2)n1`, for which the AC50 reads like this: under setting [2], 35.5 µM [rising, single point]; under setting [1], 17.8 µM [rising, single point].
For the molecule `Cc1cc(C)nc(Nc2n[nH]c(-c3ccc(C(C)(C)C)cc3)n2)n1`, the AC50 under setting [2] was 0.0501 µM [falling, full curve].
Turning to `Cc1c(C)c2c(c(C)c1O)CC[C@@](C)(CCC[C@@H](C)CCC[C@@H](C)CCCC(C)C)O2`, the concentration at half-maximal activity (AC50) under setting [1] is 2.82 µM [rising, single point].
In the case of `COc1ccccc1-c1nc(C#N)c(N2CCN(c3cccc(Cl)c3)CC2)o1`, the AC50 is 14.1 µM [rising, single point] under setting [2] and 12.6 µM [rising, partial curve] under setting [1].
With `CCSc1nc2c(c(=O)n1Cc1ccccc1)SC(C)C2` (configuration not stated), the AC50 under setting [1] was 31.6 µM [rising, single point].
For `Cc1ccc(NC(CNS(=O)(=O)c2ccc(Cl)cc2)c2ccccc2)cc1` (configuration not stated), the AC50 is, setting by setting: under setting [2], 25.1 µM [falling, single point]; under setting [1], 22.4 µM [falling, partial curve].
Regarding `COc1ccccc1-n1c(CCn2nc(C)c(Br)c2C)n[nH]c1=S`, the AC50 by setting is: under setting [2], 35.5 µM [rising, single point]; under setting [1], 35.5 µM [rising, single point].
For the molecule `CCOc1ccccc1NC(=O)N1CCC(c2nc3ccc(C)cc3[nH]2)CC1`, the AC50 under setting [2] is 17.8 µM [rising, partial curve, poor fit].
For `Cc1nn(-c2ccccc2)c2sc(C(=O)N3CCCCC3)cc12`, the AC50 reads like this: under setting [2], 7.08 µM [rising, partial curve, poor fit]; under setting [1], 12.6 µM [rising, partial curve].
For `c1cc2c(cc1-c1cnc3n1CCC3)OCCO2`, the half-maximal activity concentration (AC50) under setting [1] is 5.01 µM [falling, partial curve].
Still for that read-out and setting: for `Cc1ccc2[nH]c(=O)c(CN(Cc3cccnc3)C(=O)c3ccncc3)cc2c1` the value was 35.5 µM [rising, single point]; for `COc1cccc2cccc(/C=N/n3cnnc3)c12`, 14.1 µM [rising, single point].
With `CC(C)c1ccc2c(c1)CCC1C(C)(C(N)=O)CCCC21C` (configuration not stated), the AC50 runs as follows: under setting [2], 35.5 µM [rising, single point]; under setting [1], 12.6 µM [rising, single point].
In the case of `CC(C)c1ccc(N(C(=O)c2cc3ccccc3oc2=O)C2C=CS(=O)(=O)C2)cc1` (configuration not stated), the AC50 under setting [1] is 8.91 µM [rising, partial curve].
Take `CSc1ccc(NC(=O)N2CC=C(n3c(=O)[nH]c4ccccc43)CC2)cc1`: the AC50 under setting [2] is 31.6 µM [rising, single point] and the AC50 under setting [1] is 31.6 µM [rising, single point].
Consider `CCOC(=O)c1ccc(-n2c(CN(CC)CC)nc3ccc([N+](=O)[O-])cc3c2=O)cc1`, for which the AC50 under setting [2] is 3.55 µM [rising, partial curve, poor fit] and the AC50 under setting [1] is 2.51 µM [rising, partial curve, poor fit].
With `Oc1ccc2ccccc2c1/C=N/Nc1nnc(-c2ncc[nH]2)c2ccccc12`, the AC50 under setting [1] was 7.94 µM [rising, partial curve].
On to `CN(C)c1nc(-c2ccc3c(c2)OCO3)nc2ccccc12`, for which the AC50 under setting [2] was 20 µM [falling, single point].
Still for that read-out and setting: for `COc1ccc(NC(=O)CSc2nc3ccccc3nc2Cc2ccc(C)cc2)cc1Cl` the value was 0.2 µM [rising, partial curve].
As for `O=C(CSc1nc2ccccc2c(=O)[nH]1)Nc1ccc(S(=O)(=O)N2CCCC2)cc1`, the AC50 is, setting by setting: under setting [2], 11.2 µM [rising, partial curve]; under setting [1], 11.2 µM [rising, partial curve].
Regarding `O=C1C2CC=CCC2C(=O)N1c1ccc(NCCc2ccc(Cl)cc2)c([N+](=O)[O-])c1` (configuration not stated), the AC50 is 12.6 µM [rising, partial curve, poor fit] under setting [2] and 15.8 µM [rising, partial curve] under setting [1].
Turning to `O=C(Nc1cccc(Cl)c1)NC1CCCCC1`, the AC50 under setting [1] is 11.2 µM [rising, single point].
On to `CCN(CC)c1ccc2cc(-c3nc(-c4ccc(Cl)cc4Cl)cs3)c(=O)oc2c1`, for which the AC50 under setting [1] was 12.6 µM [falling, partial curve, poor fit].
For `CCn1cc([N+](=O)[O-])c(C(=O)Nc2nc(-c3ccc(C)cc3)c(C)s2)n1`, the AC50 is 35.5 µM [falling, single point] under setting [2] and 35.5 µM [falling, single point] under setting [1].
As for `Cc1c(-c2ccccn2)c(=O)[nH]n1-c1ccc(F)cc1`, the AC50 under setting [1] is 2 µM [rising, partial curve, poor fit].
With `CCOC(=O)c1ccccc1NS(=O)(=O)c1ccc(C)cc1`, the AC50 under setting [1] was 12.6 µM [rising, single point].
The same measure, in the same setting: for `COc1ccc(-c2nc3c4ccccc4ccn3c2CN2CCCCC2)cc1` the value was 10 µM [rising, single point].
As for `COC(=O)c1ccc(C(=O)OC)c(NC(=O)CN(C)Cc2cccc(Cl)c2Cl)c1`, the AC50 runs as follows: under setting [2], 12.6 µM [rising, partial curve]; under setting [1], 20 µM [rising, partial curve].
As to `CCCCCCCCCCCCCCCCCC(=O)OC[C@@H](O)[C@H]1OC[C@H](O)[C@H]1O`, under setting [2], the concentration at half-maximal activity (AC50) was 0.708 µM [falling, full curve, poor fit].
Turning to `N=c1ccn2c(n1)O[C@H]1[C@H](O)[C@@H](CO)O[C@H]12`, the AC50 reads like this: under setting [2], 0.00631 µM [falling, full curve]; under setting [1], 0.0794 µM [rising, full curve, poor fit].
With `CCCCNC(=O)c1onc(CSc2ccc(C(C)C)cc2)c1C(=O)O`, the AC50 under setting [1] was 5.62 µM [falling, single point].
On to `COc1ccc(N2CCN(c3cc(C)c4ccc(C)cc4n3)CC2)cc1`, for which, under setting [2], the AC50 is 22.4 µM [falling, single point].
Take `O=c1[nH]c(CN2CCN(c3ccc([N+](=O)[O-])cc3)CC2)nc2ccsc12`: the concentration at half-maximal activity (AC50) under setting [2] was 10 µM [rising, partial curve] and the concentration at half-maximal activity (AC50) under setting [1] is 12.6 µM [rising, partial curve].
On to `COCCn1nnnc1C(c1cc2ccc(C)cc2[nH]c1=O)N(Cc1ccco1)Cc1cccs1` (configuration not stated), for which the half-maximal activity concentration (AC50) is, setting by setting: under setting [2], 15.8 µM [rising, partial curve]; under setting [1], 12.6 µM [rising, partial curve].
For the molecule `CCCCOc1ccc(C(=O)NCc2ccncc2)cc1`, under setting [1], the AC50 is 22.4 µM [rising, single point].
Still for that read-out and setting: for `COCCCNC(=O)Cn1cc(/C=C(\C#N)C(=O)N2CCN(c3ccccc3)CC2)c2ccccc21` the value was 10 µM [rising, partial curve].
As to `COc1ccc(O)c(C(=O)/C=C/c2cc3ccccc3o2)c1`, the AC50 is, setting by setting: under setting [2], 35.5 µM [falling, single point]; under setting [1], 8.91 µM [falling, partial curve].
Regarding `COc1ccc(Cl)cc1NC(=O)CN(C)C(C)C(=O)NCC1CCCCC1` (configuration not stated), the AC50 is, setting by setting: under setting [2], 20 µM [rising, partial curve, poor fit]; under setting [1], 28.2 µM [rising, single point].
As to `CCCCC[C@H](O)/C=C/[C@@H]1[C@@H](C/C=C\CCCC(=O)O)[C@H]2CO[C@@H]1C2`, the AC50 under setting [1] was 35.5 µM [rising, single point].
On to `CCCc1nn2c(=O)cc(COC(=O)c3cccs3)nc2s1`, for which, under setting [2], the AC50 was 0.0158 µM [falling, full curve, poor fit].
Consider `COc1cc(C2C(C#N)=C(N)Oc3cc(N(C)C)ccc32)cc2c1OCO2` (configuration not stated), for which the AC50 runs as follows: under setting [2], 0.158 µM [falling, full curve]; under setting [1], 0.251 µM [falling, full curve].
For the molecule `O=C(c1cc2nc(-c3ccco3)cc(C(F)(F)F)n2n1)N1CCN(c2ccccn2)CC1`, the AC50 under setting [1] was 31.6 µM [rising, single point].
As to `O=S(=O)(c1cccc(F)c1)N1CCC(CO)(Cc2cccc(F)c2)CC1`, the AC50 under setting [2] is 35.5 µM [falling, single point].
Take `COc1ccc([N+](=O)[O-])cc1NC(=O)Nc1cccc(Cl)c1`: the AC50 runs as follows: under setting [2], 11.2 µM [rising, partial curve]; under setting [1], 10 µM [rising, partial curve].
Turning to `Cc1[nH]c2ccccc2c1C(=O)CCl`, the AC50 under setting [2] is 0.112 µM [falling, partial curve, poor fit].
`CN1C(=O)Cc2cc(S(=O)(=O)N3CCN(c4cccc(C(F)(F)F)c4)CC3)ccc21`: the AC50 under setting [2] was 0.178 µM [falling, full curve, poor fit] and the AC50 under setting [1] was 2.82 µM [falling, full curve].
With `Cc1nc2sc(C(c3ccc(Cl)cc3)N3CCN(c4ccccc4F)CC3)c(O)n2n1` (configuration not stated), the AC50 is 11.2 µM [rising, partial curve, poor fit] under setting [2] and 17.8 µM [rising, single point] under setting [1].
